The nature of this data set: general procedure: Fmoc solid-phase peptide synthesis; 2-chlorotrityl resin; HATU/DIEA (collidine for Cys); HBTU/HOBt for chloroacetic acid. The following applies: for final HPLC purity: peak integration.
Where [1] appears, read: whole synthesis, scale 2.75 mmol.

Some peptides are written in HELM: one residue between dots, names in brackets for other building blocks, links after the first $.

In the case of “ClCH2CO-β-Dap(Boc)-Dab(Boc)-Cys(Trt)-Thr(tBu)(ol)”, the “final HPLC purity” value (whole synthesis, scale of the general procedure 2.75 mmol) was “greater than 90%”. Where the note is “whole synthesis, scale 2.76 mmol”, this substance returned an isolated mass of 970 mg.
Take “PEPTIDE1{Y.[dW].K.T.F.[meHcy]}|PEPTIDE2{[CH2CO].[bDap].[Dab].C.[Tol]}$PEPTIDE1,PEPTIDE1,1:R1-6:R2|PEPTIDE1,PEPTIDE2,6:R3-1:R1$$$V2.0”: the “final HPLC purity” value (conjugation step, UV 220 nm) is listed as “greater than 95%”.
For the substance cyclo-Tyr-D-Trp-Lys-Thr-Phe-(N—CH3)Hcy, the “final HPLC purity” value (whole synthesis, UV 220 nm, scale of the general procedure 2.75 mmol) was more than 95%. In addition, under setting [1], the crude mass is given as 4.23 g and the isolated mass worked out at 510 mg.

Values taken from patent US6358491B1 (Berlex Laboratories, Inc., priority 1999, dated 2002).
